Test results reported in PMC4071561.
Results are given in words; binding and its absence hold for the method and conditions named. Binding seen in cells or lysates may run through a third protein. Some entries that bind do so weakly or less than the wild type. For part of these data: Where a sequence is shown, tags or fusion partners need not be part of it.

Experiments:
[1] = molecular target: T1, Caperα, endogenous mouse (mouse (endogenous in e10.5 embryos)) (UniProt Q8VH51); experiment: co-IP; e10.5 mouse embryo lysates; IP with anti-Caperα, immunoblot with anti-Tbx3; Dynabeads Protein G, 4°C
T1 sequence: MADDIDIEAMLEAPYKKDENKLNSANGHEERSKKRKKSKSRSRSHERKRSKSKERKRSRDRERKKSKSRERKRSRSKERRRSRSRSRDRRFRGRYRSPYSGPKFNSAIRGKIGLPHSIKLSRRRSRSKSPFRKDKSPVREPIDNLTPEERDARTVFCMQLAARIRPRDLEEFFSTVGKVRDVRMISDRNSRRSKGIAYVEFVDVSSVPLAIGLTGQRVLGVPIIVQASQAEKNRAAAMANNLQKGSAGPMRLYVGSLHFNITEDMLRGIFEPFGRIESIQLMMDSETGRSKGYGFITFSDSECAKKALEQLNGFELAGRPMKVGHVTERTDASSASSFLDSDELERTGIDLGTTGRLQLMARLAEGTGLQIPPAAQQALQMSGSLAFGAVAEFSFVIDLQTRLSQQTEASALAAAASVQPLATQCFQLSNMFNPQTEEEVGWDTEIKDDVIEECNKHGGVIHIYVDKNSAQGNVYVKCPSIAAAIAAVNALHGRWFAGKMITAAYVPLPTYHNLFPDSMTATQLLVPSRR

[2] = molecular target: T2, CAPERα (Coactivator of AP1 and Estrogen Receptor), endogenous human (human (endogenous in HEK293 and HFFs)) (UniProt Q14498); experiment: co-IP; HEK293 cells transfected with anti-TBX3 shRNA and expressing untagged mouse Tbx3 proteins; IP with anti-CAPERα (endogenous), immunoblot with anti-Tbx3
T2 sequence: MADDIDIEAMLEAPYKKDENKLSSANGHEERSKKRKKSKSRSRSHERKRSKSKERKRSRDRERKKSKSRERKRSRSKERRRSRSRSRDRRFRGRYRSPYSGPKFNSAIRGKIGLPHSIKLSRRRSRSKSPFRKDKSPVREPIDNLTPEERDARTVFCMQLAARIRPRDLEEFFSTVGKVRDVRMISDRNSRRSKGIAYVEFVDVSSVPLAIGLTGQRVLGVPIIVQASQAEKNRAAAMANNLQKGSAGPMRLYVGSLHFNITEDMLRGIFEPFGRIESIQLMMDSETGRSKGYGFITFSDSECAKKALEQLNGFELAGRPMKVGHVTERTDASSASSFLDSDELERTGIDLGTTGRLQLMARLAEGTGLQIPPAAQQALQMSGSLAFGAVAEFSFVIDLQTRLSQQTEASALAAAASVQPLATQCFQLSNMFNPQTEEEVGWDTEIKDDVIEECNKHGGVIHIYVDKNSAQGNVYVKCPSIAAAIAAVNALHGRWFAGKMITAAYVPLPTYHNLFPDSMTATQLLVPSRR

| binding [1] | binding [2] | Binder |
| --- | --- | --- |
| binds |  | Tbx3, endogenous mouse (protein, UniProt P70324-2 1-721) MSLSMRDPVIPGTSMAYHPFLPHRAPDFAMSAVLGHQPPFFPALTLPPNGAAALSLPGALAKPIMDQLVGAAETGIPFSSLGPQAHLRPLKTMEPEEDVEDDPKVHLEAKELWDQFHKRGTEMVITKSGRRMFPPFKVRCSGLDKKAKYILLMDIIAADDCRYKFHNSRWMVAGKADPEMPKRMYIHPDSPATGEQWMSKVVTFHKLKLTNNISDKHGFTILNSMHKYQPRFHIVRANDILKLPYSTFRTYLFPETEFIAVTAYQNDKITQLKIDNNPFAKGFRDTGNGRREKRKQLTLQSMRVFEERHKKETSDESSSEQAAFNCFAQASSPAVSIVGTSNLKDLCPSEAESDAEAESKEEHGPEACDAAKISTTTAEEPGRDKGSPATRAQLFPAEPSRARDTARLDKASPDSRHSPATISSSTRVPGADERRSPGREGPVATKVDEARAIPAKDAFAPLSVQTDATAHLAQGPLPGLGFAPGLAGQQFFNGHPLFLHPGQFAMGGAFSSMAAGMGPLLATVSGASTGVSGLESTAMASAAAAQGLSGASAATLPFHLQQHVLASQGLAMSPFGSLFPYPYTYMAAAAAASTAAASSSVHRHPFLNLNSMRPRLRYSPYSIPVPVPDSSSLLATALPSMASAAGPLDGKAAALAASPASVAVDSGSELNSRSSTLSSGSVSLSPKLCSEKEAATSELQSIQRLVSGLEAKPDRSCSGSP |
|  | binds | mouse Tbx3 L143P (DNA binding domain point mutant) (protein, UniProt P70324-2 1-721) MSLSMRDPVIPGTSMAYHPFLPHRAPDFAMSAVLGHQPPFFPALTLPPNGAAALSLPGALAKPIMDQLVGAAETGIPFSSLGPQAHLRPLKTMEPEEDVEDDPKVHLEAKELWDQFHKRGTEMVITKSGRRMFPPFKVRCSGPDKKAKYILLMDIIAADDCRYKFHNSRWMVAGKADPEMPKRMYIHPDSPATGEQWMSKVVTFHKLKLTNNISDKHGFTILNSMHKYQPRFHIVRANDILKLPYSTFRTYLFPETEFIAVTAYQNDKITQLKIDNNPFAKGFRDTGNGRREKRKQLTLQSMRVFEERHKKETSDESSSEQAAFNCFAQASSPAVSIVGTSNLKDLCPSEAESDAEAESKEEHGPEACDAAKISTTTAEEPGRDKGSPATRAQLFPAEPSRARDTARLDKASPDSRHSPATISSSTRVPGADERRSPGREGPVATKVDEARAIPAKDAFAPLSVQTDATAHLAQGPLPGLGFAPGLAGQQFFNGHPLFLHPGQFAMGGAFSSMAAGMGPLLATVSGASTGVSGLESTAMASAAAAQGLSGASAATLPFHLQQHVLASQGLAMSPFGSLFPYPYTYMAAAAAASTAAASSSVHRHPFLNLNSMRPRLRYSPYSIPVPVPDSSSLLATALPSMASAAGPLDGKAAALAASPASVAVDSGSELNSRSSTLSSGSVSLSPKLCSEKEAATSELQSIQRLVSGLEAKPDRSCSGSP |
|  | binds | wild-type mouse Tbx3, overexpressed, untagged (protein, UniProt P70324-2 1-721) MSLSMRDPVIPGTSMAYHPFLPHRAPDFAMSAVLGHQPPFFPALTLPPNGAAALSLPGALAKPIMDQLVGAAETGIPFSSLGPQAHLRPLKTMEPEEDVEDDPKVHLEAKELWDQFHKRGTEMVITKSGRRMFPPFKVRCSGLDKKAKYILLMDIIAADDCRYKFHNSRWMVAGKADPEMPKRMYIHPDSPATGEQWMSKVVTFHKLKLTNNISDKHGFTILNSMHKYQPRFHIVRANDILKLPYSTFRTYLFPETEFIAVTAYQNDKITQLKIDNNPFAKGFRDTGNGRREKRKQLTLQSMRVFEERHKKETSDESSSEQAAFNCFAQASSPAVSIVGTSNLKDLCPSEAESDAEAESKEEHGPEACDAAKISTTTAEEPGRDKGSPATRAQLFPAEPSRARDTARLDKASPDSRHSPATISSSTRVPGADERRSPGREGPVATKVDEARAIPAKDAFAPLSVQTDATAHLAQGPLPGLGFAPGLAGQQFFNGHPLFLHPGQFAMGGAFSSMAAGMGPLLATVSGASTGVSGLESTAMASAAAAQGLSGASAATLPFHLQQHVLASQGLAMSPFGSLFPYPYTYMAAAAAASTAAASSSVHRHPFLNLNSMRPRLRYSPYSIPVPVPDSSSLLATALPSMASAAGPLDGKAAALAASPASVAVDSGSELNSRSSTLSSGSVSLSPKLCSEKEAATSELQSIQRLVSGLEAKPDRSCSGSP |
